Results from PubChem BioAssay AID274 (DTP/NCI, 2004).
The list shows only some results of the screen, not a fair sample: it gathers tests that were run many times, whatever their T/C, doses with no T/C, and many T/C values between a quarter and a half above the control. Other doses and runs of a compound stand elsewhere. T/C: endpoint of the treated group in % of that of the vehicle group. Some doses have a count of surviving animals in place of a T/C: the source holds a T/C of zero for them, seemingly a mark for toxic or unscored doses. Some survivor counts are full or nearly so, which does not show that the dose was tolerated: the source hardly ever lists a survival T/C far under the control, and the zero likely stands for such cases as well. Counts of survivors are from the toxicity check (mostly the fifth day) where no day follows; animals may have died later. Schedules are NCI's codes, read here as Q, the interval in days (D) or hours (H), X, the number of doses. Some doses were run more than once; the results are listed from low to high. For survival time, the PubChem record calls one and a half times the control and up active, and a quarter to a half above the control has no call in these data; cut-offs in other NCI protocols can differ. Some T/C values carry the count of animals alive at the toxicity check (mostly the fifth day); where none is given, no animal had died by that day.

Test system: BDF1 mice, Lewis lung carcinoma iv, survival T/C
Assay: NCI In Vivo Anticancer Drug Screen. Data for tumor model Lewis Lung Carcinoma (intravenous) in B6D2F1 (BDF1) mice
Conditions: T/C endpoint: median survival time, higher T/C = longer survival
Description: The antitumor activity of compounds was measured in mice bearing transplantable tumors. Survival or tumor size were measured and the results are expressed as the measurement made in the treated group (T) divided by the measurement made in the vehicle treated control group (C). The tumor model used in this assay is Lewis Lung Carcinoma (intravenous) in B6D2F1 (BDF1) mice

[1] = dose: 50.0 mg/kg/injection, schedule: Q01DX009 (ip), vehicle: Klucel (hydroxypropylcellulose) (HPC)
[2] = dose: 100.0 mg/kg/injection, schedule: Q01DX009 (ip), vehicle: Klucel (hydroxypropylcellulose) (HPC)
[3] = dose: 200.0 mg/kg/injection, schedule: Q01DX009 (ip), vehicle: Klucel (hydroxypropylcellulose) (HPC)
[4] = dose: 400.0 mg/kg/injection, schedule: Q01DX009 (ip), vehicle: Klucel (hydroxypropylcellulose) (HPC)
[5] = dose: 400.0 mg/kg/injection, schedule: Q01DX009 (ip), vehicle: saline
[6] = dose: 400.0 mg/kg/injection, schedule: Q01DX009 (ip), vehicle: water
[7] = dose: 200.0 mg/kg/injection, schedule: Q01DX009 (ip), vehicle: saline
[8] = dose: 100.0 mg/kg/injection, schedule: Q01DX009 (ip), vehicle: saline

Question: How did the survivor count [1] turn out when NCCc1ccc(O)c(O)c1 was run?
Answer: The survivor count was 10 of 10.

Question: What about the survivor count [2] of the same compound?
Answer: Its survivor count is 10 of 10.

Question: What about the survivor count [3] of the same compound?
Answer: Its survivor count is 10 of 10.

Question: What about the survivor count [4] of the same compound?
Answer: Its survivor count is 10 of 10.

Question: And the survivor count (dose: 600.0 mg/kg/injection, schedule: Q01DX009 (ip), vehicle: Klucel (hydroxypropylcellulose) (HPC))?
Answer: Its survivor count is 10 of 10.

Question: Which survivor count (dose: 1.8 mg/kg/injection, schedule: Q01DX021 (ip), vehicle: sodium bicarbonate) does the source give for CN(Cc1cnc2nc(N)nc(N)c2n1)c1ccc(C(=O)N[C@@H](CCC(=O)O)C(=O)O)cc1 here?
Answer: The survivor count was 8 of 8.

Question: What about the T/C (dose: 2.0 mg/kg/injection, schedule: Q01DX009 (ip), vehicle: sodium bicarbonate) of the same compound?
Answer: The T/C was 147 % of control.

Question: What about the survivor count (dose: 2.5 mg/kg/injection, schedule: Q04DX003 (ip), vehicle: sodium bicarbonate) of the same compound?
Answer: The survivor count was 3 of 8 and 8 of 8.

Question: And the survivor count (dose: 4.0 mg/kg/injection, schedule: Q01DX009 (ip), vehicle: sodium bicarbonate)?
Answer: Its survivor count is 10 of 10.

Question: And the survivor count (dose: 5.0 mg/kg/injection, schedule: Q04DX003 (ip), vehicle: sodium bicarbonate)?
Answer: Its survivor count is 1 of 8 and 8 of 8.

Question: And the survivor count (dose: 8.0 mg/kg/injection, schedule: Q01DX009 (ip), vehicle: sodium bicarbonate)?
Answer: The survivor count was 9 of 10 and 10 of 10.

Question: And the survivor count (dose: 10.0 mg/kg/injection, schedule: Q04DX003 (ip), vehicle: sodium bicarbonate)?
Answer: Its survivor count is 3 of 8 and 8 of 8.

Question: What about the survivor count (dose: 16.0 mg/kg/injection, schedule: Q01DX009 (ip), vehicle: sodium bicarbonate) of the same compound?
Answer: The survivor count was 9 of 10.

Question: And the T/C (dose: 18.0 mg/kg/injection, schedule: Q04DX003 (ip), vehicle: sodium bicarbonate)?
Answer: Its T/C is 133 and 139 % of control.

Question: And the T/C (dose: 18.0 mg/kg/injection, schedule: Q04DX006 (ip), vehicle: sodium bicarbonate)?
Answer: Its T/C is 128 % of control.

Question: What about the survivor count (dose: 20.0 mg/kg/injection, schedule: Q04DX003 (ip), vehicle: sodium bicarbonate) of the same compound?
Answer: Its survivor count is 2 of 8 and 8 of 8.

Question: And the T/C (dose: 30.0 mg/kg/injection, schedule: Q04DX003 (ip), vehicle: sodium bicarbonate, evaluated on day 60)?
Answer: Its T/C is 87 and 123 % of control.

Question: What about the T/C (dose: 30.0 mg/kg/injection, schedule: Q04DX003 (ip), vehicle: sodium bicarbonate, evaluated on day 90) of the same compound?
Answer: The T/C was 125 and 165 % of control.

Question: And the survivor count (dose: 30.0 mg/kg/injection, schedule: Q04DX003 (ip), vehicle: sodium bicarbonate)?
Answer: Its survivor count is 3 of 8.

Question: What about the T/C (dose: 30.0 mg/kg/injection, schedule: Q04DX003 (iv), vehicle: sodium bicarbonate) of the same compound?
Answer: The T/C was 135 % of control.

Question: And the survivor count (dose: 50.0 mg/kg/injection, schedule: Q04DX003 (ip), vehicle: sodium bicarbonate)?
Answer: Its survivor count is 8 of 8.

Question: What about the survivor count (dose: 50.0 mg/kg/injection, schedule: Q04DX003 (iv), vehicle: sodium bicarbonate) of the same compound?
Answer: Its survivor count is 8 of 8.

Question: How did the survivor count (dose: 1.08 mg/kg/injection, schedule: Q01DX009 (ip), vehicle: saline) turn out when CCC1(O)CC2CN(CCc3c([nH]c4ccccc34)C(C(=O)OC)(c3cc4c(cc3OC)N(C)C3C(O)(C(=O)NCCSSCCNC(=O)C5(O)C(O)C6(CC)C=CCN7CCC8(c9cc(C%10(C(=O)OC)CC%11CN(CCc%12c%10[nH]c%10ccccc%12%10)CC(O)(CC)C%11)c(OC)cc9N(C)C58)C76)C(O)C5(CC)C=CCN6CCC43C65)C2)C1 (stereo unspecified) was run?
Answer: The survivor count was 10 of 10.

Question: What about the survivor count (dose: 1.8 mg/kg/injection, schedule: Q01DX009 (ip), vehicle: saline) of the same compound?
Answer: Its survivor count is 8 of 10.

Question: What about the survivor count (dose: 3.0 mg/kg/injection, schedule: Q01DX009 (ip), vehicle: saline) of the same compound?
Answer: The survivor count was 6 of 10.

Question: What does the source list for NC(Cc1ccc(N(CCCl)CCCl)cc1)C(=O)O (stereo unspecified)?
Answer: T/C (dose: 4.0 mg/kg/injection, schedule: Q01DX009 (ip), vehicle: Klucel (hydroxypropylcellulose) (HPC)): 130 % of control [7 of 10 alive]; survivor count (dose: 8.0 mg/kg/injection, schedule: Q01DX009 (ip), vehicle: Klucel (hydroxypropylcellulose) (HPC)): 10 of 10; survivor count (dose: 16.0 mg/kg/injection, schedule: Q01DX009 (ip), vehicle: Klucel (hydroxypropylcellulose) (HPC)): 10 of 10

Question: For CC(=O)O[C@@H]1CO[C@H]2O[C@H]3[C@@H](C(C=O)=C[C@H](O)[C@@H]4C5=C(C(C)C)CC[C@]5(C)CC[C@@]34C)[C@@]2(O)C1=O, which survivor count (dose: 3.0 mg/kg/injection, schedule: Q01DX009 (ip), vehicle: Klucel (hydroxypropylcellulose) (HPC)) is on record?
Answer: The survivor count was 4 of 9.

Question: And the survivor count (dose: 6.0 mg/kg/injection, schedule: Q01DX009 (ip), vehicle: Klucel (hydroxypropylcellulose) (HPC))?
Answer: Its survivor count is 7 of 10.

Question: And the survivor count (dose: 12.0 mg/kg/injection, schedule: Q01DX009 (ip), vehicle: Klucel (hydroxypropylcellulose) (HPC))?
Answer: The survivor count was 1 of 10.

Question: And the survivor count (dose: 24.0 mg/kg/injection, schedule: Q01DX009 (ip), vehicle: Klucel (hydroxypropylcellulose) (HPC))?
Answer: Its survivor count is 0 of 10.

Question: How did the survivor count [5] turn out when CCN(CC)CCOCCO was run?
Answer: The survivor count was 0 of 10.

Question: C/C=C(\C)c1cc(=O)c2c(C)cc3c(c2o1)C(=O)c1c(O)c(C2CC(C)(N(C)C)C(O)C(C)O2)cc(C2CC(N(C)C)C(O)C(C)O2)c1C3=O (stereo unspecified) was tested. Which survivor count (dose: 500.0 micrograms/kg/injection, schedule: Q01DX009 (ip), vehicle: saline) did it give?
Answer: Its survivor count is 10 of 10.

Question: What about the survivor count (dose: 1000.0 micrograms/kg/injection, schedule: Q01DX009 (ip), vehicle: saline) of the same compound?
Answer: The survivor count was 10 of 10.

Question: Nc1ncnc2c1ncn2C1OC(COP(=O)(O)O)C(O)C1O (stereo unspecified) was tested. Which T/C [6] did it give?
Answer: The T/C was 126 % of control.

Question: And the survivor count (dose: 1600.0 mg/kg/injection, schedule: Q01DX009 (ip), vehicle: saline)?
Answer: Its survivor count is 10 of 10.

Question: Which survivor count [1] does the source give for COc1ccc(C(N)=O)cc1N=NN(C)C here?
Answer: Its survivor count is 9 of 10.

Question: What about the survivor count [2] of the same compound?
Answer: Its survivor count is 7 of 10.

Question: For Nc1nc(N)c2c(Cl)c(CNc3ccc(Cl)c(Cl)c3)ccc2n1, which survivor count (dose: 100.0 mg/kg/injection, schedule: Q01DX009 (ip), vehicle: saline with Tween-80) is on record?
Answer: The survivor count was 10 of 10.

Question: Which survivor count (dose: 50.0 mg/kg/injection, schedule: Q01DX009 (ip), vehicle: saline with Tween-80) does the source give for COC(=O)c1cc2cc3c(c(O)c2c(=O)o1)OC1(Cc2c(O)c4c(c(O)c2O1)C(=O)C(OC)CC4=O)CC3O (stereo unspecified) here?
Answer: Its survivor count is 9 of 10.

Question: What does the source list for CNc1cccnc1/C=N/NC(N)=S?
Answer: survivor count (dose: 200.0 mg/kg/injection, schedule: Q01DX009 (ip), vehicle: saline with Tween-80): 9 of 9; survivor count (dose: 400.0 mg/kg/injection, schedule: Q01DX009 (ip), vehicle: saline with Tween-80): 6 of 10

Question: For Cc1ccc(S(=O)(=O)NC(=O)C2C(=O)CC3(CCCCC3)CC2=O)cc1, which survivor count [3] is on record?
Answer: The survivor count was 6 of 10.

Question: What about the survivor count [4] of the same compound?
Answer: The survivor count was 0 of 10.

Question: CCCC(=O)O was tested. Which survivor count [7] did it give?
Answer: Its survivor count is 5 of 10.

Question: And the survivor count [5]?
Answer: Its survivor count is 0 of 10.

Question: NC(=O)c1ncn(C2OC(CO)C(O)C2O)n1 (stereo unspecified) was tested. Which survivor count (dose: 320.0 mg/kg/injection, schedule: Q01DX009 (ip), vehicle: saline) did it give?
Answer: The survivor count was 10 of 10.

Question: How did the survivor count (dose: 20.0 mg/kg/injection, schedule: Q01DX009 (ip), vehicle: Klucel (hydroxypropylcellulose) (HPC)) turn out when O=C1C=CC(=O)N1c1ccc(Cl)cc1 was run?
Answer: Its survivor count is 2 of 10.

Question: What about the survivor count (dose: 40.0 mg/kg/injection, schedule: Q01DX009 (ip), vehicle: Klucel (hydroxypropylcellulose) (HPC)) of the same compound?
Answer: Its survivor count is 0 of 10.

Question: With CC/C(=C(/CC)c1ccc(O)cc1)c1ccc(O)cc1 as the compound, how does the survivor count [6] read?
Answer: Its survivor count is 10 of 10.

Question: Which survivor count (dose: 40.0 mg/kg/injection, schedule: Q01DX009 (ip), vehicle: saline with Tween-80) does the source give for NC1(C(=O)O)CCCc2ccc(N(CCCl)CCCl)cc21 (stereo unspecified) here?
Answer: Its survivor count is 9 of 10.

Question: Which results are given for O=C(O)C(CSC(c1ccccc1)(c1ccccc1)c1ccccc1)N=Cc1cccs1 (stereo unspecified)?
Answer: survivor count [8]: 10 of 10; survivor count [7]: 10 of 10; survivor count [5]: 1 of 10

Question: How did the survivor count (dose: 25.0 mg/kg/injection, schedule: Q01DX009 (ip), vehicle: saline with Tween-80) turn out when Cc1cc(NCCCCCCCNc2cc(C)nc3cc(N)ccc23)c2ccc(N)cc2n1 was run?
Answer: Its survivor count is 10 of 10.

Question: How did the T/C (dose: 154.0 mg/kg/injection, schedule: Q01DX001 (ip), vehicle: Klucel (hydroxypropylcellulose) (HPC)) turn out when O=P1(NCCCl)OCCC(OO)N1CCCl (stereo unspecified) was run?
Answer: Its T/C is 131 % of control.

Question: And the survivor count (dose: 345.0 mg/kg/injection, schedule: Q01DX001 (ip), vehicle: Klucel (hydroxypropylcellulose) (HPC))?
Answer: Its survivor count is 5 of 10.

Question: For O=C1C=CC(n2cc(F)c(=O)[nH]c2=O)O1 (stereo unspecified), which survivor count [8] is on record?
Answer: The survivor count was 8 of 10.

Question: With CC1(C)COCN1COCCOCN1COCC1(C)C as the compound, how does the survivor count [7] read?
Answer: The survivor count was 1 of 10.

Question: Which survivor count [4] does the source give for CC(C)(C)C1CCCCC1 here?
Answer: Its survivor count is 9 of 10.
